Source: PubChem BioAssay AID1159506 (NCATS, 2015).

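Luminescence from an EWS-FLI1 target-promoter (NR0B1) reporter, set against a CMV-promoter reporter, two days after silencing single genes in TC32 Ewing sarcoma cells. Each siRNA was applied at 20 nM. A z-score of the log NR0B1-over-CMV signal, less the median of siRNAs with the same seed; more negative means a stronger specific loss of the NR0B1 reporter.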

The strongest results of the screen are mostly left out here. Sequences are the guide (antisense) strand, without overhang.

siRNA,target gene,seed-corrected z-score
UUGCUAGCAAUAUCAGCCC,YTHDF2,-1.369
UCUGAAAACGGUGCUAGGU,FAM45BP,0.2319
UUCGAGUCUGGGACAAUGG,MARK3,1.038
AUGGUCAUAAGUAAUACCC,SPRYD7,-0.02969
AUGCGAUUCACAAUCCAGC,MYO3B,0.1109
AUCAUCACAAUUAUGGGUG,C10orf120,0.1949
AAAUAUCAUCCCAAUAUGG,CAMKV,0.1475
UUCUGCUUCACCGCUUUCU,NHP2,-1.174
UUCGGUCUUAUUGGACACC,SERPINC1,0.5838
UGAAGGUUCAGAGACAGGG,TMEM109,-0.489
UUCUGUCCAAAGAUCCGCC,PRTN3,-0.7393
UUGGUGUUGACUCGCUUGC,DRD2,0.09577
UUGAAAAUAAUACAGCACU,RPS17P16,0.8808
UUUGAAGAUGCACUGACCC,ABCG4,0.7884
UUACGGUAGUGCCUGGUCA,KLF4,-0.05726
UCCUGUGAAAGGAUCGAGC,BMS1P21,0.1207
AUUGCUGUCAAUGUGAUCC,FOXP2,0.9328
UCACCCAUAUAUUAUGUCC,TNFRSF10A,-0.2348
UCAAACAACAGCAUCUAGG,HIGD2A,0.6039
UUCUGUUUUAACCUGGACC,HDAC9,-0.08611
UAAAGAAUUGCGUGGACCG,FIZ1,0.5355
UGAACUUCAAGUAGUCAGC,DYRK1A,-0.08735
UUCUCUAUCCACUUGUGCC,RQCD1,0.5417
UCUCGUAGAAAAUCAUCCG,NUTM2G,1.161
UGACAGAUAACUUCCACUC,WBSCR22,0.8983
AAUUCUUCCACCAAUAUUU,VAMP3,0.9692
UCUGUCAUAAGUGUAGCAG,JCHAIN,0.02465
UCUGAUGCACUCUUGGUUU,FNDC5,-1.483
AGAUUUAAAAUCUCCAGCG,LOC729083,0.4482
UCAUGGUCUGGUACCUCUC,POLM,-0.8285
UCGAUGAUCACAUACACUC,PRKCE,0.1691
UCACGUAGAAGUCUUGCUC,SERPINA5,0.429
AUUCUUCUAAAGUCAAUUC,GUCA1C,0.6168
UUCCGGUUUGUCCAUAUGC,KIF3A,-0.6634
UUGUAGAAGACAGGUAGGG,MGC15885,1.107
UGUCGUACACCAGAAGCGC,RAB17,-1.021
UCUGUAGACACUCCAAUAC,HJURP,0.7901
UUCGUGGUAAUUUCCUCUC,ADAMDEC1,-0.759
UUUGGGUUAGAUCUGUUCC,UTP23,1.297
AUAGUUACUUCCCUUUACC,SLC2A13,0.5491
UCUGUUUCUGCCCUAUUUC,PARVB,-0.5093
AACAUCAUUGUUCACCGCC,PDZD3,-0.9931
AUCCAGUCCACUUCAGUCC,SYTL2,-0.4151
UCUCCGACCGACAUCACCU,RAB24,0.2788
UUACCGACCAAAAUAUAUA,GTF2IP20,0.5674
AACUUCUCAAUCGAUCUUC,CHIC2,-0.08895
AAAGGUAUCACAUGUUAAU,LILRA1,-0.06791
UUCGAUCUUUAAAUUGCCC,VSIG1,0.2266

6 of the entries, repeated:

| siRNA | target gene | seed-corrected z-score |
|---|---|---|
| `UUCUGUCCAAAGAUCCGCC` | PRTN3 | -0.7393 |
| `UUCGUGGUAAUUUCCUCUC` | ADAMDEC1 | -0.759 |
| `AAAGGUAUCACAUGUUAAU` | LILRA1 | -0.06791 |
| `AUCAUCACAAUUAUGGGUG` | C10orf120 | 0.1949 |
| `UUCUGCUUCACCGCUUUCU` | NHP2 | -1.174 |
| `UCUGAUGCACUCUUGGUUU` | FNDC5 | -1.483 |